Test results published in publication PMC9060465 (Proceedings of the National Academy of Sciences of the …, 2022).
These are yes or no findings as the source states them, for the method shown. Binding seen in cells or lysates may run through a third protein. Some results given as binding are weak or reduced against the parent protein; the word gives no strength.

Protein sequences, listed by entry. Tags and fused reporters are not part of them. Residues count along the entry.
UniProt P43220, residues 24-463: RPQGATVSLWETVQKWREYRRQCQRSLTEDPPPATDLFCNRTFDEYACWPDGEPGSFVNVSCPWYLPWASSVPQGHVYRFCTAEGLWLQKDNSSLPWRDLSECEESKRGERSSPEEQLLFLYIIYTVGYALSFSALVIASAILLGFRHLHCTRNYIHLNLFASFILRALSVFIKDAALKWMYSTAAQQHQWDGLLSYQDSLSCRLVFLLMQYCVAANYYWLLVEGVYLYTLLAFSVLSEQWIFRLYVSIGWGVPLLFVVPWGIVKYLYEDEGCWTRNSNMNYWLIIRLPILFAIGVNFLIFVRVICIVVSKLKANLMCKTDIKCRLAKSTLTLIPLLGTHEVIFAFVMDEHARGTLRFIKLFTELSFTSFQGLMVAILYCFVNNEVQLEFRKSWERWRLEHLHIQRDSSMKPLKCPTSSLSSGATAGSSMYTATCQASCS
UniProt P49407: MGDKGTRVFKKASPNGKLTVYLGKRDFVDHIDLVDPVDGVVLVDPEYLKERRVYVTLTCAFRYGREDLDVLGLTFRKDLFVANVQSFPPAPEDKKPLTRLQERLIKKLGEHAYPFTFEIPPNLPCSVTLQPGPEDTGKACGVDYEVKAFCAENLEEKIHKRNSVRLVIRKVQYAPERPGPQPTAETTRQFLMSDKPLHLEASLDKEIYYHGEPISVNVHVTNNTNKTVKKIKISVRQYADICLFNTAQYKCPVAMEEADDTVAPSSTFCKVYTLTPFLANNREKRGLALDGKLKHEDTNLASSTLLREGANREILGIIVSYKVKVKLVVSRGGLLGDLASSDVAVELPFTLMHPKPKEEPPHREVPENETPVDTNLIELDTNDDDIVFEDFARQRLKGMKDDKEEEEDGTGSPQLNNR

Target: GLP-1R of the NanoBRET β-arrestin 1 recruitment assay (human) (UniProt P43220)
Experiment: FRET or BRET; NanoBRET β-arrestin 1 recruitment to the GLP-1R in cells, induced by GLP-1, tirzepatide, TZPΔC20, TZPΔC20,Y1H; exactly as in ref. 10

binding: binds
Substance: β-arrestin 1 (NanoBRET recruitment assay) (from UniProt P49407 1-418)
